Laboratory results: PubChem BioAssay AID1671195 (Yale University, 2021)

Screen: 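Regulators of LDL receptor activity judged by labelled LDL uptake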 (primary screen)
System: human Huh7 hepatoma cells
Knock-down reagent: siRNA pool against human genes, 18 nM
Duration: about 2 to 2.5 days of knockdown, then 8 h LDL uptake
Challenge: DiI-labelled LDL at 30 µg/ml for 8 h, in lipoprotein-deficient serum medium
Read-out: 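Per-cell DiI-LDL intensity by automated imaging; well means scaled to the plate median and given as a robust z-score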
Reading the numbers: robust z-score: higher = more LDL uptake after knockdown
Rule for the call: 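a gene counts as active if at least two replicate z-scores exceed ±2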
The deposit covers about 22,000 reagents; shown is an unselected part. In the full data, about 1,510 (6.9%) got an active call. 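Active includes knockdowns raising or lowering LDL uptake; positive z-scores mean more uptake, negative mean less.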

| target | robust z-score, replicate 1 | robust z-score, replicate 2 | robust z-score, replicate 3 | Call |
| --- | --- | --- | --- | --- |
| FCRL1 | -0.649 | -1.03 | -1.21 | inactive |
| WDR27 | 2.32 | 1.55 | 1.86 | inactive |
| LOC391322 | -1.68 | -1.38 | -1.76 | inactive |
| CALN1 | 0.729 | 0.417 | 0.516 | inactive |
| CCDC81 | 0.0113 | 0.317 | 0.0268 | inactive |
| C3orf52 | -1.67 | -1.28 | -1.67 | inactive |
| SP7 | -0.166 | -0.512 | -0.688 | inactive |
| PMM2 | -0.603 | -0.764 | -0.243 | inactive |
| CPZ | -0.383 | -1.18 | -2.87 | inactive |
| MRPL27 | -0.809 | -0.0646 | -0.177 | inactive |
| LOC440578 (retired record) | -0.226 | -0.298 | -0.338 | inactive |
| BTF3L4P3 | 2.17 | 1.83 | 1.91 | active |
| FAM47B | 0.452 | 1.5 | -0.435 | inactive |
| PAX6-AS1 | 1.07 | 1.73 | 1.06 | inactive |
| ART4 | 1.35 | 0.96 | 1.09 | inactive |
| LOC440262 (retired record) | -1.2 | -1.01 | -1.08 | inactive |
| WNT7B | -1.43 | 0.229 | -0.916 | inactive |
| PPP1R9B | 0.0849 | -1 | 0.145 | inactive |
| LINC01973 | -0.674 | -0.912 | -0.628 | inactive |
| TMEM121 | 0.288 | -0.434 | 0.231 | inactive |
| LINC02481 | -0.0891 | -0.374 | -0.208 | inactive |
| CTNNB1 | 0.452 | -0.0138 | 0.493 | inactive |
| SIRAL1 | 2.07 | 1.54 | 1.44 | inactive |
| LOC400496 (retired record) | -0.185 | 0.187 | 0.0698 | inactive |
| RASA2 | 0.161 | -0.444 | -0.0884 | inactive |
| TBX18 | -0.3 | 0.111 | 0.189 | inactive |
| SLC14A2-AS1 | -0.513 | -0.972 | -0.893 | inactive |
| SOST | -0.205 | 0.0385 | -1.06 | inactive |
| EXO5 | -0.407 | -0.316 | -0.385 | inactive |
| FLJ45300 (retired record) | -2.36 | -2.29 | -2.36 | active |
| E2F3 | 1.83 | 2.01 | -0.0392 | inactive |
| TRIM54 | -0.706 | -1.04 | -1.03 | inactive |
| TMBIM1 | -0.0384 | 1.08 | 0.76 | inactive |
| ABCB9 | -0.209 | -0.191 | -0.867 | inactive |
| KLHL24 | -1.04 | -1.2 | 0.821 | inactive |
| KRTAP9-3 | -0.116 | 0.182 | 0.144 | inactive |
| LOC391669 (retired record) | 2.86 | 2.67 | 3.34 | active |
| C6orf58 | -1.64 | -1.87 | -1.51 | inactive |
| UGT1A10 | -0.112 | 0.178 | 0.72 | inactive |
| ARPC2 | 0.188 | -0.445 | -0.0226 | inactive |
| COPS6 | -0.327 | -0.87 | 0.833 | inactive |
| HSPB2 | 1.9 | 2.06 | 1.94 | active |
| DTX2 | -0.705 | -0.401 | -0.0325 | inactive |
| NKAPL | -0.633 | -0.66 | -0.371 | inactive |
| KRT18P55 | 1.36 | 2.2 | 1.67 | inactive |
| OSGEP | 0.0461 | 1.06 | 0.336 | inactive |
| PSD3 | -0.726 | 1.36 | -1.91 | inactive |
| C1orf159 | 0.0751 | -0.307 | -0.993 | inactive |
| NCAM2 | -1.23 | -0.131 | 1.4 | inactive |
| GAPT | 1.07 | 1.62 | 1.7 | inactive |
| SYCE1 | 1.31 | 1.18 | 0.714 | inactive |
| LOC441740 (retired record) | 0.00927 | -0.281 | -0.439 | inactive |

The list goes on, starting with the last 10 of the part before.
| target | robust z-score, replicate 1 | robust z-score, replicate 2 | robust z-score, replicate 3 | Call |
| --- | --- | --- | --- | --- |
| DTX2 | -0.705 | -0.401 | -0.0325 | inactive |
| NKAPL | -0.633 | -0.66 | -0.371 | inactive |
| KRT18P55 | 1.36 | 2.2 | 1.67 | inactive |
| OSGEP | 0.0461 | 1.06 | 0.336 | inactive |
| PSD3 | -0.726 | 1.36 | -1.91 | inactive |
| C1orf159 | 0.0751 | -0.307 | -0.993 | inactive |
| NCAM2 | -1.23 | -0.131 | 1.4 | inactive |
| GAPT | 1.07 | 1.62 | 1.7 | inactive |
| SYCE1 | 1.31 | 1.18 | 0.714 | inactive |
| LOC441740 (retired record) | 0.00927 | -0.281 | -0.439 | inactive |
| LINC00316 | -0.642 | -0.215 | 0.0636 | inactive |
| PRPS1L1 | 0.47 | 1.6 | 1.53 | inactive |
| OSCP1 | 2.72 | 2.24 | 2.05 | active |
| VAPA | -1.88 | -1.51 | -1.85 | inactive |
| LIMS1 | 1.77 | 1.22 | 0.545 | inactive |
| SLC8A2 | 0.33 | -0.363 | 0.187 | inactive |
| TRIM21 | -1.05 | -0.902 | -1.19 | inactive |
| SLTM | 0.598 | -0.0931 | 0.246 | inactive |
| RGS20 | -0.427 | -0.825 | -0.698 | inactive |
| LIMS3 | 0.274 | 0.954 | 1.04 | inactive |
| RGN | -0.508 | -0.0789 | -0.0624 | inactive |
| IK | 4.3 | 4.23 | 4.05 | active |
| PDCL3 | -0.484 | -0.797 | -0.505 | inactive |
| E2F6P4 | 3.07 | 2.26 | 2 | active |
| UGGT1 | 0.186 | 0.747 | 0.654 | inactive |
| DDX6 | 0.523 | 2.52 | 3.66 | active |
| OPTC | 0.7 | 1.8 | -0.861 | inactive |
| MS4A5 | 1.4 | 0.492 | 0.708 | inactive |
| POLR1H | -1 | -1.13 | -0.633 | inactive |
| LOC392223 (retired record) | -0.154 | 0.805 | 1.19 | inactive |
| MCRIP1 | 0.608 | 0.928 | 0.848 | inactive |
| GIGYF1 | 0.485 | 1.52 | 2.74 | inactive |
| SCP2D1 | 1.73 | 1.59 | 1.12 | inactive |
| CDC42EP1 | 0.267 | -0.379 | 0.195 | inactive |
| CRADD | 1.73 | 1.4 | 1.53 | inactive |
| LOC441043 (retired record) | 1.09 | 0.797 | 1.04 | inactive |
| TEX9 | 0.0175 | -0.137 | 0.0668 | inactive |
| KIF26A | -1.25 | 1.62 | -0.4 | inactive |
| LINC02869 | 0.963 | 1.18 | 1.32 | inactive |
| IRAK2 | -0.855 | -1.21 | -0.795 | inactive |
| CHRM5 | -0.371 | 0.169 | -0.199 | inactive |
| NUP50 | -0.0119 | 0.0525 | -1.35 | inactive |
| SLC44A2 | 0.67 | 0.665 | -0.387 | inactive |
| GTF2H1 | -0.236 | -0.246 | -0.282 | inactive |
| MFAP5 | -0.55 | 2.26 | 0.593 | inactive |
